{"source": "paper doi:10.1101/2024.10.07.617030", "key": {"[1]": {"system": "E. coli RNA polymerase core (alpha2 beta beta' omega) + DNA topoisomerase I (TopoI) wild type", "assay": "EMSA"}, "[2]": {"system": "E. coli RNA polymerase core (alpha2 beta beta' omega) (Escherichia coli)", "assay": "size-exclusion chromatography", "settings": "RNAP EC without TopoI, purified by SEC"}, "[3]": {"system": "E. coli RNA polymerase core (alpha2 beta beta' omega) + DNA topoisomerase I (TopoI) wild type", "assay": "size-exclusion chromatography"}, "[4]": {"system": "E. coli RNA polymerase core (alpha2 beta beta' omega) + DNA topoisomerase I (TopoI) wild type", "assay": "cryo-EM", "settings": "5 mM Mg2+, Zn2+"}, "[5]": {"system": "E. coli RNA polymerase core (alpha2 beta beta' omega) + TopoI-G703P", "assay": "EMSA", "settings": "mutant TopoI binding to preformed RNAP EC, vs wild type"}, "[6]": {"system": "E. coli RNA polymerase core (alpha2 beta beta' omega) + TopoI-Y704A", "assay": "EMSA", "settings": "mutant TopoI binding to preformed RNAP EC, vs wild type"}, "[7]": {"system": "E. coli RNA polymerase core (alpha2 beta beta' omega) + TopoI-G703P", "assay": "size-exclusion chromatography", "settings": "co-elutes with RNAP EC, lower amount than wild type"}, "[8]": {"system": "E. coli RNA polymerase core (alpha2 beta beta' omega) + TopoI-Y704A", "assay": "size-exclusion chromatography", "settings": "co-elutes with RNAP EC, lower amount than wild type"}}, "note": "The exact form of at least one protein or probe is not confirmed. For some assays here: No signal at the amounts used counts as a negative. For some assays here: The comparison behind a weaker result is the experiment's own reference, which may not be listed here. For some assays here: At least one verdict was read from the data and is not stated in words by the source.", "data": [{"sequence": "CTCTGAATCTCTTCCGACGCGCCGCG / TCGGAAGAGATTCAGAG / GAGUCCGCGGCGCG [minimal scaffold]", "values": [{"measurement": "binding result", "setting": "[1]; TopoI binding to preformed RNAP EC, no RNAP-TopoI complex", "value": "no binding"}, {"measurement": "binding result", "setting": "[2]", "value": "binds"}, {"measurement": "binding result", "setting": "[3]; TopoI does not co-elute with RNAP EC", "value": "no binding"}]}, {"sequence": "CTCTGAATCTCTTCCGACGCGCCGCGAAAATTTTTTTTAAAATTATTAATCCC / GGGATTAATAATTTTTTTCATTATTTTTATCGATCTTCGGAAGAGATTCAGAG / GAGUCCGCGGCGCG [bubble scaffold]", "values": [{"measurement": "binding result", "setting": "[4]; consensus 3.8 A", "value": "binds"}]}, {"sequence": "CTCTGAATCTCTTCCGACGCGCCGCGAAAATTTTTTTTTTTTTTTTTTTT / TTAGTTAGTTTTTTTCATTATTTTTATCGATCTTCGGAAGAGATTCAGAG / GAGUCCGCGGCGCG [long overhang scaffold]", "values": [{"measurement": "binding result", "setting": "[4]; at least two orientations", "value": "binds"}]}, {"sequence": "CTCTGAATCTCTTCCGACGCGCCGCGGGACGTACTGACC / GGTCAGTACGTCCTATCGATCTTCGGAAGAGATTCAGAG / GAGUCCGCGGCGCG [duplex scaffold]", "values": [{"measurement": "binding result", "setting": "[5]", "value": "binds more weakly"}, {"measurement": "binding result", "setting": "[6]", "value": "binds more weakly"}, {"measurement": "binding result", "setting": "[1]; TopoI binding to preformed RNAP EC (2 uM EC, 2-6 uM TopoI)", "value": "binds"}, {"measurement": "binding result", "setting": "[7]", "value": "binds more weakly"}, {"measurement": "binding result", "setting": "[8]", "value": "binds more weakly"}, {"measurement": "binding result", "setting": "[2]", "value": "binds"}, {"measurement": "binding result", "setting": "[3]; TopoI co-elutes with RNAP EC", "value": "binds"}, {"measurement": "binding result", "setting": "[4]; equimolar EC and TopoI", "value": "binds"}]}, {"sequence": "CTCTGAATCTCTTCCGACGCGCCGCGGGACGTACTGACCTTAGAT / TAGATTGGTCAGTACGTCCTATCGATCTTCGGAAGAGATTCAGAG / GAGUCCGCGGCGCG [short overhang scaffold]", "values": [{"measurement": "binding result", "setting": "[4]", "value": "binds"}]}]}
